# Experimental data: doi:10.1101/2021.12.08.471864
# The chains behind the UniProt entries cited, without tags or fusion partners. Where a name states a change or a piece, a line headed by the entry shows the natural chain unless it says otherwise.
# UniProt Q02563, whole entry: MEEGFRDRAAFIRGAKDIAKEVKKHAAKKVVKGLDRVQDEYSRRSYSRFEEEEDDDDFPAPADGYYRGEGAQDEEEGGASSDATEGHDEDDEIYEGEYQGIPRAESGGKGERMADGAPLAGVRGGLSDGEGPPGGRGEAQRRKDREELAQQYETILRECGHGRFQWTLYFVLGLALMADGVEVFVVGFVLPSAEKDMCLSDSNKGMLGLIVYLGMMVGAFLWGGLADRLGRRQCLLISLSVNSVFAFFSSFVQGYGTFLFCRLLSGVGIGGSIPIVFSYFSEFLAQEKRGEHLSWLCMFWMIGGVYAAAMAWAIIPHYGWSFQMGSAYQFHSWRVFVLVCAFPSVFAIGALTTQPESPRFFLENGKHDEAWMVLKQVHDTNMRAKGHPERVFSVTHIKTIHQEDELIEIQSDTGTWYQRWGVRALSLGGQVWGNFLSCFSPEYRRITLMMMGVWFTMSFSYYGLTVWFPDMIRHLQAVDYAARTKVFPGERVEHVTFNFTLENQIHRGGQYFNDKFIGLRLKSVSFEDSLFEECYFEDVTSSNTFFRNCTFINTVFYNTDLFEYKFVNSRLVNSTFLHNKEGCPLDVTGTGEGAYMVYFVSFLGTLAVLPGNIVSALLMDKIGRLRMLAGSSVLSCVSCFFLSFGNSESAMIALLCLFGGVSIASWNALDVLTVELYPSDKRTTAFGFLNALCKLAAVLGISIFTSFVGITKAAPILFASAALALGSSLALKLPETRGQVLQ
# UniProt P21707, whole entry: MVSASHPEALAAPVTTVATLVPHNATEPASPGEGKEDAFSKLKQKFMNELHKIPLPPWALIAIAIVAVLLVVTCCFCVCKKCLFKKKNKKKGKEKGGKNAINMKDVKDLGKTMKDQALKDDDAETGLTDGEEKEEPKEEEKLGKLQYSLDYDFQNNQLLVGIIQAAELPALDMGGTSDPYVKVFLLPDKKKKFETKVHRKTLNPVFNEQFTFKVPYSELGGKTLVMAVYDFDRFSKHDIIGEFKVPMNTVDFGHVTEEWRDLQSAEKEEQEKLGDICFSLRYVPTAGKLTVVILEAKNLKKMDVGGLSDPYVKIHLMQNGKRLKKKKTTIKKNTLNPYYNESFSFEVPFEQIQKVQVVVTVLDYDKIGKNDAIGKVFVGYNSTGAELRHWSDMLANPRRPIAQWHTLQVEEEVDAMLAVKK
# These are yes or no findings as the source states them, for the method shown. In cells and extracts the contact can be indirect. Some results given as binding are weak or reduced against the parent protein; the word gives no strength.
# Experiments:
# [1] = biological target: SV2A^WT-mCer (synaptic vesicle protein 2A tagged with mCerulean) (UniProt Q02563); test: co-IP
# SV2A^Y46A-mCer = SV2A^Y46A-mCer (UniProt Q02563); test: co-IP
substance,measurement,setting,value
synaptotagmin-1-HA (from UniProt P21707 1-421),binding,[1],binds
same,binding,SV2A^Y46A-mCer,binds
